Results are given in words; binding and its absence hold for the method and conditions named. Where a sequence is shown, tags or fusion partners need not be part of it.
Experiments:
[1] = molecular target: T1, PagP (untagged construct) (E. coli) (UniProt P37001); test: SEC; analytical gel filtration on Superdex 75 10/300 GL in 50 mM glycine, pH 9.5; 10 μM PagP with 60 μM SurA, or 2 μM PagP with 6 μM lysozyme, incubated 5 min at room temperature in 0.24 M urea, no lipid; both purified
T1 sequence: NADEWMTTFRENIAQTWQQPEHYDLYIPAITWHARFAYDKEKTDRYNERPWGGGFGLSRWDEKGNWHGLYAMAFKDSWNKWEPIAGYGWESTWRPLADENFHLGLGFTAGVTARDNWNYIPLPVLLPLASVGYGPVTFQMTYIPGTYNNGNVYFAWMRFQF

Amino acid sequences for entries named in this document (tags omitted). Residues count along the entry.
UniProt P0ABZ6, residues 21-428: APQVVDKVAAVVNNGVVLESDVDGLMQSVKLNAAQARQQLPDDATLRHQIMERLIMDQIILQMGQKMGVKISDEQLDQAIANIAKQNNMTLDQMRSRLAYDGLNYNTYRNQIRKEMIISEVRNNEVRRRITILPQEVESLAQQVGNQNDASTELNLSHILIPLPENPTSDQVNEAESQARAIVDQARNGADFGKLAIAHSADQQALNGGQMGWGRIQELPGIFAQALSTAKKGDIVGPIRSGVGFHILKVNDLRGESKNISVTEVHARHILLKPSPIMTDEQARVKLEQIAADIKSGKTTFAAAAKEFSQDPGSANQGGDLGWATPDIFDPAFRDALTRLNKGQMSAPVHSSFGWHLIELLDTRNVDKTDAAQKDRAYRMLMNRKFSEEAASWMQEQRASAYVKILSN

[2] = molecular target: T2, His-tagged PagP (E. coli) (UniProt P37001); test: pull-down; HT PagP (10 μM) immobilised on Ni-Sepharose resin; 10 μM lysozyme, SurA or Skp trimers added for 1 h in 50 mM glycine, pH 9.5, 5 mM imidazole; washed with 20 mM imidazole; eluted with 5 M urea and 500 mM imidazole; bound and unbound fractions analysed by SDS-PAGE; both purified
T2 sequence: T1 sequence

Substance: SurA (from UniProt P0ABZ6 21-428)
- binding [1]: no binding (tested: 60 μM SurA, 10 μM PagP)
- binding [2]: no binding (tested: 10 μM SurA, 10 μM HT PagP)

From article PMC3906610
